From PubChem BioAssay AID504834 (National Center for Advancing Translational Sciences (NCATS), 2011)
About 22,000 (6.9%) of roughly 320,000 compounds were called active. This list was built around the results that the source calls inconclusive (neither active nor inactive); the mix of calls is not that of the screen. Calls follow the shape of the dose curve; as a rule, active = well fitted inhibition curve with a large enough effect; inconclusive = small, poorly fitted or top-dose-only effect, or another doubt; inactive = no such curve, though single readings can be large or run the other way. Where the call is inconclusive, the potency comes from a doubtful curve fit.

Assay: Primary qHTS for delayed death inhibitors of the malarial parasite plastid, 96 hour incubation
Details: P. falciparum luciferase reporter growth; series mostly up to 28.7 µM; activity change, negative = inhibition: at the top concentration
Outline: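 Readout is luminescence from an integrated firefly luciferase in P. falciparum. Red cells, 2% hematocrit and 0.05% parasitemia final, were cultured with compound through two parasite generations (96 hours) at 37 C, 5% CO2.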
% is scaled to controls: 0 for no effect and ±100 for the full control effect; potency is read from the fitted curve at half-maximal effect.

Compound | Potency | activity change, negative = inhibition
O=C1CC(N2CCN(c3ccc(F)cc3)CC2)C(=O)N1c1ccc(F)cc1 (stereo not drawn) | inconclusive: 0.738 µM [inhibitor, full curve, poor fit] | –
O=C(CN1CCN(C(=O)C2CC2)CC1)Nc1cc(C(F)(F)F)cc(C(F)(F)F)c1 | – | inactive: -14.2%
COc1ccccc1CNC(=O)N1CCN(S(=O)(=O)c2ccc(Cl)cc2)CC1 | – | inactive: -14.7%
Cc1ccc(S(=O)(=O)N2CCCCC2)cc1NC(=O)c1cc(=O)[nH]c2ccccc12 | inconclusive: 18.5 µM [inhibitor, single point] | –
COC(=O)N/N=C(\C)c1cccc(C(F)(F)F)c1 | – | inactive: 15.2%
Oc1ccc(Cl)c(Cl)c1Cl | inconclusive: 13.1 µM [inhibitor, single point] | –
CCNS(=O)(=O)c1cc(OC)ccc1OC | inconclusive: 0.0147 µM [inhibitor, full curve, poor fit] | –
CSc1ccccc1C(=O)Nc1ccc2c(c1)OCO2 | inconclusive: 16.5 µM [inhibitor, single point] | –
Cc1nc2ccccc2c(=O)n1/N=C/c1ccc(F)cc1 | inconclusive: 18.5 µM [inhibitor, single point] | –
COc1cccc2c1OCC(CN1CCN(Cc3ccccc3F)C(CCO)C1)=C2 (stereo not drawn) | inconclusive: 18.5 µM [inhibitor, single point] | –
Cc1ccc(NC(=O)C2CCN(C(=O)c3ccco3)CC2)cc1C | inconclusive: 8.28 µM [inhibitor, partial curve, poor fit] | –
CC(=O)Nc1ccc(N(C(=O)c2ccco2)C(C(=O)NC2CCCC2)c2ccncc2)cc1 (stereo not drawn) | inconclusive: 16.5 µM [inhibitor, partial curve, poor fit] | –
CC1CCC2C(=O)N(c3ccc(C(=O)Oc4cccc5cccnc45)cc3)C(=O)C2C1 (stereo not drawn) | – | inactive: -0.693%
CCN(CC)C(=O)c1[nH]cnc1C(=O)N[C@@H](Cc1ccccc1)C(=O)OC(C)(C)C | inconclusive: 0.0033 µM [inhibitor, full curve, poor fit] | –
CCCN(CCC)CCNC(=O)C1c2ccccc2C(=O)N(CCOC)C1c1ccc(F)cc1 (stereo not drawn) | inconclusive: 14.7 µM [inhibitor, partial curve, poor fit] | –
COC(=O)c1cc(NC(=O)c2ccccc2)c(=O)oc1C/C=N\OCc1ccc(Cl)cc1Cl | inconclusive: 13.1 µM [inhibitor, partial curve, poor fit] | –
O=C(NC1(C(F)(F)F)NC(=O)N(CC2CCCCC2)C1=O)c1ccco1 (stereo not drawn) | inconclusive: 4.65 µM [inhibitor, partial curve] | –
COc1ccc(CCn2c(-c3ccc(F)cc3)nc3c(c(=O)c4ccccc4n3C)c2=O)cc1OC | inconclusive: 2.62 µM [inhibitor, full curve] | –

Quoted at random: 2 records from the list
Compound | Potency | activity change, negative = inhibition
Cc1nc2ccccc2c(=O)n1/N=C/c1ccc(F)cc1 | inconclusive: 18.5 µM [inhibitor, single point] | –
CCN(CC)C(=O)c1[nH]cnc1C(=O)N[C@@H](Cc1ccccc1)C(=O)OC(C)(C)C | inconclusive: 0.0033 µM [inhibitor, full curve, poor fit] | –
